Experimental findings from PMC5552905, “Mechanisms of peptide sex pheromone regulation of conjugation in Enterococcus faecalis” (MicrobiologyOpen, 2017) are described below.

Results are given in words; binding and its absence hold for the method and conditions named. Some binding calls cover weakened binding; strength is not graded here. Where a sequence is shown, tags or fusion partners need not be part of it.

The target of this test is His-tagged PrgX (Enterococcus faecalis (plasmid pCF10)) (UniProt Q04114). Put plainly: SEC; PrgX exposed to the control peptide cAD1; data not shown; both purified. In general terms: In gel filtration, larger molecules generally elute earlier.

B1: His-tagged PrgX (natural protein, Enterococcus faecalis (plasmid pCF10), UniProt Q04114 1-317, looked up)
chain: MFKIGSVLKQIRQELNYHQIDLYSGIMSKSVYIKVEADSRPISVEELSKFSERLGVNFFEILNRAGMNTKSVNETGKEKLLISKIFTNPDLFDKNFQRIEPKRLTSLQYFSIYLGYISIAHHYNIEVPTFNKTITSDLKHLYDKRTTFFGIDYEIVSNLLNVLPYEEVSSIIKPMYPIVDSFGKDYDLTIQTVLKNALTISIMNRNLKEAQYYINQFEHLKTIKNISINGYYDLEINYLKQIYQFLTDKNIDSYLNAVNIINIFKIIGKEDIHRSLVEELTKISAKEKFTPPKEVTMYYENYVAIENNPIPEIKEQS
notes: PrgX, master transcription regulator and sex pheromone receptor encoded by the Enterococcus faecalis plasmid pCF10; also called HisPrgX; Apo-PrgX
B1: the binding entry is on record as “binds”.
